Test results: patent publication US12605459B2 (priority 2020, dated 2026)

Assay: peptide synthesis

Substance | purity (crude or final not stated) | step yield (coupling step) | conjugation yield (conjugation step, TFA salt)
DIBAC-GGF-P3 (Gly-NHCH2O-Dxd) | 99% |  | 
(2S)-2-(2-{2-[(2R)-6-Azido-2-({[(9H-fluoren-9-yl)methoxy]carbonyl}amino)hexanamido]acetamido}acetamido)-3-phenylpropanoic Acid |  | 76% | 
COT-GGG-P3 (Gly-NHCH2O-Dxd) [LP3] | 99% |  | 36%
